Residue numbers refer to the chain shown, from its start. Numbers in names are those of the source. These are yes or no findings as the source states them, for the method shown. Binding seen in cells or lysates may run through a third protein. Binding can be weak; no strength is given.
B1: Hemojuvelin, wild type (protein, UniProt Q6ZVN8 36-400)
chain: QCKILRCNAEYVSSTLSLRGGGSSGALRGGGGGGRGGGVGSGGLCRALRSYALCTRRTARTCRGDLAFHSAVHGIEDLMIQHNCSRQGPTAPPPPRGPALPGAGSGLPAPDPCDYEGRFSRLHGRPPGFLHCASFGDPHVRSFHHHFHTCRVQGAWPLLDNDFLFVQATSSPMALGANATATRKLTIIFKNMQECIDQKVYQAEVDNLPVAFEDGSINGGDRPGGSSLSIQTANPGNHVEIQAAYIGTTIIIRQTAGQLSFSIKVAEDVAMAFSAEQDLQLCVGGCPPSQRLSRSERNRRGAITIDTARRLCKEGLPVEDAYFHSCVFDVLISGDPNFTVAAQAALEDARAFLPDLEKLHLFPSD
B2: Hemojuvelin R121A (protein, UniProt Q6ZVN8 36-400)
chain: B1 chain with R86A
B3: Hemojuvelin R176A (protein, UniProt Q6ZVN8 36-400)
chain: B1 chain with R141A
B4: Hemojuvelin R218A (protein, UniProt Q6ZVN8 36-400)
chain: B1 chain with R183A
B5: Hemojuvelin R257A (protein, UniProt Q6ZVN8 36-400)
chain: B1 chain with R222A
B6: Hemojuvelin R288A (protein, UniProt Q6ZVN8 36-400)
chain: B1 chain with R253A
B7: Hemojuvelin R326A (protein, UniProt Q6ZVN8 36-400)
chain: B1 chain with R291A

These binders were tested against TMPRSS6^MASK, lacking the serine protease domain (assay: co-IP; HeLa cells cotransfected with wild-type or mutant HJV and TMPRSS6^MASK (ratio 1:1); lysed after 36 hrs in NET/Triton buffer; 500 ug of total lysate on anti-FLAG M2 agarose, 2 hrs at 4°C, three washes; blots with anti-HJV and anti-FLAG).
In the case of B1, the binding is reported as “binds”. With B2 the binding was “binds”. B3 was tested, and the binding was “binds”. With B4 the binding was “binds”. With B5 the binding was “binds”. B6 was tested, and the binding was “binds”. B7 was tested, and the binding was “binds”.

Source: article PMC4395201
